The target in data set [1] is T1, Endonuclease V (Thermotoga maritima) (UniProt Q9X2H9).
T1 sequence (looked up, limits assumed): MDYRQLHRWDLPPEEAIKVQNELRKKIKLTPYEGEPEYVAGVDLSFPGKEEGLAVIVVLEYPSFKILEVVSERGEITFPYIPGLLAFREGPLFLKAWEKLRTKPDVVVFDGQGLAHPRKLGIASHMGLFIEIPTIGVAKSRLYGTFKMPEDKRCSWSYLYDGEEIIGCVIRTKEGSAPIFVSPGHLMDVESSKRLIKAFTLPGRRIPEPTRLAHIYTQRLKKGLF
The data set is described as follows: enzyme reaction in vitro. Particulars: deoxyinosine at position 12 (n), loop TTCITAGCGTTT [12 deoxyinosine (parent base T)]; very effective reactivation of Taq (indirect readout); purified recombinant protein; protein details: Fisher Scientific FEREN0141; folded or branched DNA; letters built from the parent sequence and the stated change; variant of circular aptamer SEQ ID NO:6.

Protein sequences, listed by entry. Tags and fused reporters are not part of them.
UniProt P19821, whole entry: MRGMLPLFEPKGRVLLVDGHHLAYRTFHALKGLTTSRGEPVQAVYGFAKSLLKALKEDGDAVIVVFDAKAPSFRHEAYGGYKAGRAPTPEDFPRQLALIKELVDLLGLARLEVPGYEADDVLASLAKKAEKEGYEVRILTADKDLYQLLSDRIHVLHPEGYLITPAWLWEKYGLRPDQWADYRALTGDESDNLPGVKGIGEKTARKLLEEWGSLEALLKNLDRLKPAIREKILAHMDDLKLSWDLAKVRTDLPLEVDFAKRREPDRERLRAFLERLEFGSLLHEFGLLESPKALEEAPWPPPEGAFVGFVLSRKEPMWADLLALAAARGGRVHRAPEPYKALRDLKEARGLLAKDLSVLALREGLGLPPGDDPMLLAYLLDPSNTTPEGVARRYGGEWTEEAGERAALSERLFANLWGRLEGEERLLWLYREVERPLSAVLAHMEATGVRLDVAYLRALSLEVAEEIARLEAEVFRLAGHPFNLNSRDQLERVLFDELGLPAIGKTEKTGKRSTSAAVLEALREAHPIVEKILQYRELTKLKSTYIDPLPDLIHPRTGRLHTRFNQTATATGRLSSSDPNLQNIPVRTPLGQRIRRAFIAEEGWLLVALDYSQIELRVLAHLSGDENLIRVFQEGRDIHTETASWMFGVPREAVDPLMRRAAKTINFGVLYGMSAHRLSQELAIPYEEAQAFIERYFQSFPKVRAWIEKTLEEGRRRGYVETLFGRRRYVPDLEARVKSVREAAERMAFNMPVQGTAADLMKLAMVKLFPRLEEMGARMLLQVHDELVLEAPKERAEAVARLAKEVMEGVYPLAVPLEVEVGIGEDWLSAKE

In a further data set the target is T2, Deep Vent DNA polymerase (UniProt Q51334).
T2 sequence (looked up, limits assumed): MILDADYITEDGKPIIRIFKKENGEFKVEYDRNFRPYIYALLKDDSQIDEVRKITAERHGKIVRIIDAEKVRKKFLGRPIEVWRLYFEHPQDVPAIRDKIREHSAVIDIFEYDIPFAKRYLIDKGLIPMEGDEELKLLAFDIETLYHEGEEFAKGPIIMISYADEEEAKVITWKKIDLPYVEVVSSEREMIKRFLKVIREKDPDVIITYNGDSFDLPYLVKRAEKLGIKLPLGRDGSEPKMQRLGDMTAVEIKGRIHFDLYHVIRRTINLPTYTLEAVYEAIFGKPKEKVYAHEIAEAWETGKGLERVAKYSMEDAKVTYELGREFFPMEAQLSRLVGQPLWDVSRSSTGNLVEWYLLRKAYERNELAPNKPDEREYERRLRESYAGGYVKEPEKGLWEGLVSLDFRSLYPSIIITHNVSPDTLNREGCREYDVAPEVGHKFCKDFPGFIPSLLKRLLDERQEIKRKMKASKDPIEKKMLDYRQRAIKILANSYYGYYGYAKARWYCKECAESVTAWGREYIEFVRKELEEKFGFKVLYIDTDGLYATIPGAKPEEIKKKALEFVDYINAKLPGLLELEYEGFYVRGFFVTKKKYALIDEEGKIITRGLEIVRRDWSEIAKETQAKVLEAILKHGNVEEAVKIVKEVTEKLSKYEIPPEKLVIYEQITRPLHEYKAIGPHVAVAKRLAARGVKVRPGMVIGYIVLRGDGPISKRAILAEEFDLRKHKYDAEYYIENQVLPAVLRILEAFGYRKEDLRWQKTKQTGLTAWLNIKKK
The data set is described as follows: inhibition of the protein. Particulars: deoxyinosine at position 12 (n), loop TTCITAGCGTTT [12 deoxyinosine (parent base T)]; inactivated, reactivated by endonuclease V; 80 nM aptamer, 5 mM MgCl2, 60 or 65 C; purified recombinant protein; protein details: New England Biolabs M0258S; folded or branched DNA; letters built from the parent sequence and the stated change; variant of circular aptamer SEQ ID NO:6.

The target of a further data set is T3, Vent DNA polymerase (UniProt P30317).
T3 sequence (looked up, limits assumed): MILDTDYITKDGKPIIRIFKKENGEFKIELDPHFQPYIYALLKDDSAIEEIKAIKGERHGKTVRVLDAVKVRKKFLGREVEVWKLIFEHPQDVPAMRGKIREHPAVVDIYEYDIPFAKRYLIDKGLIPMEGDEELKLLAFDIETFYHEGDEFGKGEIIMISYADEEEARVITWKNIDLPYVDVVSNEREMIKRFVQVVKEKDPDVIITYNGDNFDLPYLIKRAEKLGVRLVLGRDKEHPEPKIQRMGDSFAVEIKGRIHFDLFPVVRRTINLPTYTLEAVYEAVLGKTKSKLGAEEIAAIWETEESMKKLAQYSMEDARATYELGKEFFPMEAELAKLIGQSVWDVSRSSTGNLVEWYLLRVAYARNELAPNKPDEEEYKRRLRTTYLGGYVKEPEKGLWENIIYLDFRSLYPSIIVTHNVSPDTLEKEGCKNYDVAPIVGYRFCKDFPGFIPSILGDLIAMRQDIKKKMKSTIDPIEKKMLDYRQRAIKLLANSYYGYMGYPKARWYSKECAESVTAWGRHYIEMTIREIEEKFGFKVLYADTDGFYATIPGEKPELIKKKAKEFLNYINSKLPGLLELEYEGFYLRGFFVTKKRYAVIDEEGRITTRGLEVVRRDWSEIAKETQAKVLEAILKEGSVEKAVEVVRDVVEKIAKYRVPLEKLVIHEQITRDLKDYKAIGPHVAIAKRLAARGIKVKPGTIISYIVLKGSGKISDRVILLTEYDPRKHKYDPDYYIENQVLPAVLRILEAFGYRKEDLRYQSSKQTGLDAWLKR
Put plainly: inhibition of the protein. The settings on record: deoxyinosine at position 12 (n), loop TTCITAGCGTTT [12 deoxyinosine (parent base T)]; inactivated, reactivated by endonuclease V; 80 nM aptamer, 5 mM MgCl2, 60 or 65 C; purified recombinant protein; protein details: New England Biolabs M0254S; folded or branched DNA; letters built from the parent sequence and the stated change; variant of circular aptamer SEQ ID NO:6.

A further data set relates to Phusion DNA polymerase. Put plainly: inhibition of the protein. Particulars: deoxyinosine at position 12 (n), loop TTCITAGCGTTT [12 deoxyinosine (parent base T)]; inactivated, reactivated by endonuclease V; 80 nM aptamer, 5 mM MgCl2, 60 or 65 C; purified recombinant protein; protein details: New England Biolabs M0530S; folded or branched DNA; letters built from the parent sequence and the stated change; variant of circular aptamer SEQ ID NO:6.

Data set [2] deals with T4, Bst DNA polymerase large fragment (UniProt P52026).
T4 sequence (looked up, limits assumed): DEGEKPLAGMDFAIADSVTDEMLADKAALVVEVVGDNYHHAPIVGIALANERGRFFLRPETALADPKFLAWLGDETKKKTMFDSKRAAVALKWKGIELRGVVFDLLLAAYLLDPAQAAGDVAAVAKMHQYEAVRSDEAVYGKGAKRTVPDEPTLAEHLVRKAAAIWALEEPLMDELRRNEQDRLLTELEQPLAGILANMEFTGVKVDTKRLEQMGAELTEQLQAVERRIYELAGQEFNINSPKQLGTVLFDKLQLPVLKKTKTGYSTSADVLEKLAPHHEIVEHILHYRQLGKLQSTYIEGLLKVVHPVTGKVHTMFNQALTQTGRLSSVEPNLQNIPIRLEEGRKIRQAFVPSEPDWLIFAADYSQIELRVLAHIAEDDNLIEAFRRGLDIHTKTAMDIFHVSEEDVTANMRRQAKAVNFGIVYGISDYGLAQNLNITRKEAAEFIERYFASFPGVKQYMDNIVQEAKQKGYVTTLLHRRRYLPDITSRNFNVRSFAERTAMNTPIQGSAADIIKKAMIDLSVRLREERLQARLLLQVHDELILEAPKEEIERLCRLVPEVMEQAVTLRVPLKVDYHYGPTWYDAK
The data set is described as follows: inhibition of the protein. The settings on record: deoxyinosine at position 12 (n), loop TTCITAGCGTTT [12 deoxyinosine (parent base T)]; not inactivated by aptamer; 80 nM, 5 mM MgCl2, 60 or 65 C; purified recombinant protein; protein details: New England Biolabs M0275S; folded or branched DNA; letters built from the parent sequence and the stated change; variant of circular aptamer SEQ ID NO:6.

The next data set has as its system Q5 DNA polymerase. Put plainly: inhibition of the protein. Particulars: deoxyinosine at position 12 (n), loop TTCITAGCGTTT [12 deoxyinosine (parent base T)]; inactivated, reactivated by endonuclease V; 80 nM aptamer, 5 mM MgCl2, 60 or 65 C; purified recombinant protein; protein details: New England Biolabs M0491S; folded or branched DNA; letters built from the parent sequence and the stated change; variant of circular aptamer SEQ ID NO:6.

The target in a further data set is Taq DNA polymerase (UniProt P19821). The data set is described as follows: inhibition of the protein. Particulars: deoxyinosine at position 12 (n), loop TTCITAGCGTTT [12 deoxyinosine (parent base T)]; very effective deactivation; 80 nM aptamer, PCR and hairpin-extension assay, 5 mM MgCl2; purified recombinant protein; protein details: GenScript E00007; folded or branched DNA; letters built from the parent sequence and the stated change; variant of circular aptamer SEQ ID ….

Construct, isoform or probe ends are uncertain for at least one entry. For some of these results: No signal at the amounts used counts as a negative. For some of these results: Tags and fusion partners may be left off the protein sequences shown.

Consider “AAATTATATTCTTAGCGTTTTATAATTTTAAAACGAAGTTTTA [circular aptamer SEQ ID NO:12]”, for which, in data set [1], the “activity on this sequence” value is “active”. Further, the “functional effect of the aptamer” value in the data set with Deep Vent DNA polymerase is reported as “active”; in the data set with Vent DNA polymerase it was “active”; in the data set on Phusion DNA polymerase, “active”; in data set [2], “not active”; in the data set with Q5 DNA polymerase, “active”; with Taq DNA polymerase, “active”.

For the origin of these results see US20200377869.
